# Laboratory results reported in PubChem BioAssay AID662 (National Center for Advancing Translational Sciences (NCATS), 2007).
# The other results are listed elsewhere or left out. Further columns of the screen follow, without active or inactive calls. Most of these compounds were active or inconclusive in the main read-out, so they are no random draw. Potencies come from curve fits of mixed quality, noted in brackets.
# Assay: Cell signaling CRE-BLA (Fsk stim)
# Details: CHO CRE-bla reporter (cAMP response element driving beta-lactamase), forskolin EC10, beta-lactamase ratio; measured here: 460 nm blue channel
# Outline: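 CRE-bla CHO cells stimulated with EC10 NKH 477 (water-soluble forskolin) and compound titrations, 3 h at 37C; beta-lactamase read with CCF4 after 2 h at room temperature. Activity from 460/530 nm emission ratio, AC50 values for positive or negative modulation.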
row,SMILES,AC50
1,O=C(COc1ccccc1)Nc1nn[nH]n1,"1.58 µM [rising, partial curve]"
2,CCOC(=O)c1c(C(C)(C)C)oc2ccc(OCC#N)cc12,"6.31 µM [rising, partial curve]"
3,CCOC(=O)c1sc2nc(CC(=O)OC)nc(NCc3ccco3)c2c1C,"10 µM [rising, partial curve]"
4,Cc1nc2ccc(Br)cn2c(=O)c1Cl,"20 µM [rising, single point]"
5,CCCCCCn1c(N2CCC(C(N)=O)CC2)nc2c1c(=O)n(C)c(=O)n2C,"10 µM [rising, single point]"
6,CC1(C)Cc2c(C#N)c(NCCCO)nc(-c3ccccc3)c2CO1,"10 µM [rising, partial curve]"
7,CCOC(=O)c1sc(NC(=O)COC(=O)Cn2cnc3ccccc32)c(C(=O)OCC)c1C,"7.94 µM [rising, partial curve]"
8,Cc1ccc2[nH]c(=O)c(CN(CCN3CCOCC3)C(=O)Nc3ccc(F)cc3)cc2c1,"10 µM [rising, partial curve]"
9,Brc1ccc(C2=Nn3c(nnc3-c3cccnc3)SC2)s1,"10 µM [falling, partial curve]"
10,Cc1ccc(CNC(=O)C2CCN(S(=O)(=O)c3c(C)noc3C)CC2)cc1,"0.316 µM [rising, full curve, poor fit]"
11,CCc1cc(=O)oc2c(C)c(O)c(CN3CCCCC3)cc12,"12.6 µM [rising, partial curve]"
12,COc1cc(C(=O)N2CCC(C(=O)Nc3cccc(C(C)=O)c3)CC2)cc(OC)c1OC,"12.6 µM [rising, partial curve]"
13,CCOC(=O)CSc1nc2ccccc2c(=O)n1CC1CCCO1 (stereo not drawn),"6.31 µM [rising, partial curve]"
14,CC(=O)NCCNc1nc(-c2ccccc2C)nc2ccccc12,"7.94 µM [rising, partial curve]"
15,O=C(NCC(=O)N(CCN1CCOCC1)C(C(=O)NC1CCCC1)c1cccs1)c1ccco1 (stereo not drawn),"1 µM [falling, full curve, poor fit]"
16,COC(=O)c1c(NC(=O)c2nc3ncccn3n2)sc(C(=O)N(C)C)c1C,"25.1 µM [falling, single point]"
17,O=c1c2c(nc3cc(-c4ccc(F)cc4)[nH]n13)CCCC2,"12.6 µM [rising, partial curve]"
18,CCOC(=O)N1CCN(C(=O)Cc2ccc(-n3c(=S)[nH]c4ccccc4c3=O)cc2)CC1,"0.0316 µM [falling, full curve, poor fit]"
19,CCOC(=O)c1c(C)[nH]c(C(=O)OCC(=O)N2c3ccccc3CC2C)c1C (stereo not drawn),"10 µM [rising, single point]"
20,Cc1cccc(C)c1NC(=O)CSCC(=O)O,"0.251 µM [falling, partial curve]"
21,CCOC(=O)c1cnc(SCc2nc(N)nc(Nc3ccc(C)cc3)n2)nc1N,"12.6 µM [rising, partial curve]"
22,COc1ccc(OC)c(Nc2ncnc3c2cnn3-c2cccc(C)c2)c1,"10 µM [rising, single point]"
23,COC(=O)c1cc(NC(=O)C23CCC(C)(C(=O)O2)C3(C)C)cc(C(=O)OC)c1 (stereo not drawn),"0.01 µM [falling, full curve]"

row,SMILES,AC50
1,CCC1S/C(=C(\C#N)C(=O)NCc2ccco2)N(c2ccc(F)cc2)C1=O (stereo not drawn),"25.1 µM [rising, single point]"
2,Cc1nc2ccc3nc(NC(=O)C4COc5ccccc5O4)sc3c2s1 (stereo not drawn),"12.6 µM [rising, partial curve]"
3,COCCn1c(=O)c(-c2ccccc2)nc2cnc(OC)nc21,"12.6 µM [rising, partial curve]"
4,Cc1[nH]nc2c1C(c1ccccc1F)CC(=O)N2 (stereo not drawn),"0.631 µM [falling, full curve]"
5,O=C1CC2(CCCCC2)Oc2ccc(OCC(=O)N3CCOCC3)cc21,"7.94 µM [rising, partial curve, poor fit]"
6,CCOc1cc(C2C(C(=O)OC)=C(C)N=C3SC(C)C(=O)N32)ccc1OC(C)=O (stereo not drawn),"10 µM [rising, partial curve]"
7,CC1(C)OC(=O)N(c2cccnc2)C1(C)O (stereo not drawn),"0.2 µM [falling, full curve]"
8,COC(=O)c1c(NC(=O)CSc2nncs2)sc2c1CCCCC2,"12.6 µM [rising, partial curve]"
9,CN1/C(=C\C(=O)COC(=O)Cn2nnc(-c3ccccc3)n2)C(C)(C)c2ccccc21,"3.98 µM [falling, partial curve]"
10,CNc1oc(Cc2ccccc2)nc1S(=O)(=O)c1ccccc1,"12.6 µM [falling, single point]"
11,COc1ccc(S(=O)(=O)c2c(N)n(Cc3ccco3)c3nc4ccccc4nc23)cc1,"12.6 µM [rising, single point]"
12,COc1ccc(S(=O)(=O)NCC(c2cccnc2)N2CCN(c3ccc(F)cc3)CC2)cc1C (stereo not drawn),"15.8 µM [rising, partial curve, poor fit]"
13,Nc1c(C(=O)NC2CCCC2)sc2nc(-c3cccs3)ccc12,"12.6 µM [rising, single point]"
14,CNc1ncnc2ccc(-c3ccccc3C)cc12,"10 µM [rising, partial curve]"
15,CCn1c(=O)c(C(=O)NCc2ccccn2)c(O)c2ccccc21,"6.31 µM [rising, partial curve]"
16,Cc1ccc(SCc2[nH]nc3c2C2(CCSCC2)C(C#N)=C(N)O3)cc1,"10 µM [falling, single point]"
17,CCn1c(SCC(=O)Nc2cc3oc4ccccc4c3cc2OC)nnc1-c1cccs1,"1.58 µM [rising, partial curve]"
18,CCOc1cc(-c2c(C)c(CC)nc(N)c2C#N)ccc1O,"12.6 µM [rising, partial curve]"
19,COc1cc2nc(NCC3CCCO3)n3nc(-c4cccnc4)nc3c2cc1OC (stereo not drawn),"0.794 µM [rising, partial curve]"
20,COC(=O)c1ccccc1NC(=O)c1ccc(NS(C)(=O)=O)cc1,"15.8 µM [rising, single point]"
21,O=C(NCc1cccnc1)C1CCN(S(=O)(=O)c2cccnc2)CC1,"0.0251 µM [falling, full curve]"
22,CCNS(=O)(=O)c1ccc(NC(=O)c2ccccc2OCC)cc1,"15.8 µM [rising, partial curve]"
23,Nc1ncc(-c2cc3ccccc3oc2=O)s1,"1.26 µM [rising, partial curve]"

# Rewritten bar-delimited: part of the list above
row | SMILES | AC50
9 | CN1/C(=C\C(=O)COC(=O)Cn2nnc(-c3ccccc3)n2)C(C)(C)c2ccccc21 | 3.98 µM [falling, partial curve]
10 | CNc1oc(Cc2ccccc2)nc1S(=O)(=O)c1ccccc1 | 12.6 µM [falling, single point]
11 | COc1ccc(S(=O)(=O)c2c(N)n(Cc3ccco3)c3nc4ccccc4nc23)cc1 | 12.6 µM [rising, single point]
12 | COc1ccc(S(=O)(=O)NCC(c2cccnc2)N2CCN(c3ccc(F)cc3)CC2)cc1C (stereo not drawn) | 15.8 µM [rising, partial curve, poor fit]
13 | Nc1c(C(=O)NC2CCCC2)sc2nc(-c3cccs3)ccc12 | 12.6 µM [rising, single point]

# Next results follow:

row,SMILES,AC50
1,COc1ccccc1CCn1c(=O)c(C)nc2cncnc21,"31.6 µM [rising, single point]"
2,O=C(Nc1ccc2c(c1)OCCO2)c1ccncc1,"0.631 µM [falling, full curve, poor fit]"
3,C=CCn1c(NC(=O)c2ccco2)c(S(=O)(=O)c2ccccc2)c2nc3ccccc3nc21,"12.6 µM [rising, partial curve]"
4,COCCn1c(SCC(=O)Nc2cc(Cl)ccc2OC)nc2c(c1=O)SC(C)C2 (stereo not drawn),"12.6 µM [rising, partial curve]"
5,C=CCn1c(SCC(=O)N2CCN(C(=O)c3ccco3)CC2)nc2sc(CC)cc2c1=O,"12.6 µM [rising, partial curve]"
6,CCn1c(SCc2nc3ccccc3c(=O)[nH]2)nc2ccccc2c1=O,"3.98 µM [rising, partial curve]"
7,CS(=O)(=O)N1CCc2cc(C(=O)OCC(=O)c3ccccc3)ccc21,"12.6 µM [falling, single point]"
8,COc1ccc(-c2noc(COc3ccccc3OC)n2)cc1OC,"7.94 µM [rising, partial curve]"
9,COC(=O)C1=C2SC(C)C(=O)N2C(N)=C(C#N)C1c1cc(OC)c(OC)c(OC)c1 (stereo not drawn),"2.51 µM [falling, full curve, poor fit]"
10,CCCn1c(C)cc(=O)c2cc(NC(=O)c3cnccn3)ccc21,"25.1 µM [rising, single point]"
11,OC(COCC1COc2ccccc2O1)CN1CCN(c2ccccn2)CC1 (stereo not drawn),"0.126 µM [falling, single point]"
12,COc1ccc(-n2c(N)c(C(=O)NCc3ccco3)c3nc4ccccc4nc32)c(OC)c1,"12.6 µM [rising, partial curve]"
13,Cc1sc(NC(=O)CSc2nnc(COc3ccc(Cl)cc3)n2C)c(C#N)c1C,"25.1 µM [falling, single point]"
14,COc1cc(-c2nnc(-c3cccnc3)o2)cc(OC)c1OC,"10 µM [rising, partial curve]"
15,Cc1cccc(-c2cc3nc4c(c(N5CCCC(O)C5)n3n2)CCC4)c1 (stereo not drawn),"10 µM [rising, partial curve]"
16,COc1cccc(C(=O)N(Cc2nc(-c3cccc(C)c3)no2)C(C)C)c1OC,"5.01 µM [falling, partial curve]"
17,Cc1noc(C)c1COC(=O)c1ccccc1Oc1ccccc1,"10 µM [rising, partial curve]"
18,CC(O)CNc1nc2c(c(=O)n(C)c(=O)n2C)n1C/C=C/c1ccccc1 (stereo not drawn),"12.6 µM [rising, partial curve]"
19,CCN(CC)CCCNc1nc2ccccc2[nH]1,"12.6 µM [rising, single point]"
20,C=C(C)[C@H]1CC=C(C)C(=O)C1,"0.794 µM [falling, full curve, poor fit]"
21,Cc1ccc2cc(C)c(N3CCN(c4ccccn4)CC3)nc2c1,"0.501 µM [rising, full curve]"
22,Cc1nn(-c2ccccc2)c2[nH]c(C(F)(F)F)cc(=O)c12,"25.1 µM [rising, single point]"
